# From PubChem BioAssay AID504397 (Broad Institute, 2011)
# Only a part is listed here, and it is no random draw. Entries with a potency or affinity are not part of this list. The source made the active and inactive calls. How the calls were made is not given here.
# Assay: toxicity toward cultured mammalian cells – cell-based, plate reader, cherry-pick samples, cytotoxicity control, dose response (AID 504397)
# Conditions: plate reader viability; at 35 µM (top of the series)
smiles,measurement,value
Fc1ccc(C(c2ccc(F)cc2)N2CCN(C/C=C/c3ccccc3)CC2)cc1,"activity change, negative = toxicity",inactive: 10%
